The text below walks through data of article PMC5630627.

Protein sequences, listed by entry. Tags and fused reporters are not part of them.
UniProt Q14643: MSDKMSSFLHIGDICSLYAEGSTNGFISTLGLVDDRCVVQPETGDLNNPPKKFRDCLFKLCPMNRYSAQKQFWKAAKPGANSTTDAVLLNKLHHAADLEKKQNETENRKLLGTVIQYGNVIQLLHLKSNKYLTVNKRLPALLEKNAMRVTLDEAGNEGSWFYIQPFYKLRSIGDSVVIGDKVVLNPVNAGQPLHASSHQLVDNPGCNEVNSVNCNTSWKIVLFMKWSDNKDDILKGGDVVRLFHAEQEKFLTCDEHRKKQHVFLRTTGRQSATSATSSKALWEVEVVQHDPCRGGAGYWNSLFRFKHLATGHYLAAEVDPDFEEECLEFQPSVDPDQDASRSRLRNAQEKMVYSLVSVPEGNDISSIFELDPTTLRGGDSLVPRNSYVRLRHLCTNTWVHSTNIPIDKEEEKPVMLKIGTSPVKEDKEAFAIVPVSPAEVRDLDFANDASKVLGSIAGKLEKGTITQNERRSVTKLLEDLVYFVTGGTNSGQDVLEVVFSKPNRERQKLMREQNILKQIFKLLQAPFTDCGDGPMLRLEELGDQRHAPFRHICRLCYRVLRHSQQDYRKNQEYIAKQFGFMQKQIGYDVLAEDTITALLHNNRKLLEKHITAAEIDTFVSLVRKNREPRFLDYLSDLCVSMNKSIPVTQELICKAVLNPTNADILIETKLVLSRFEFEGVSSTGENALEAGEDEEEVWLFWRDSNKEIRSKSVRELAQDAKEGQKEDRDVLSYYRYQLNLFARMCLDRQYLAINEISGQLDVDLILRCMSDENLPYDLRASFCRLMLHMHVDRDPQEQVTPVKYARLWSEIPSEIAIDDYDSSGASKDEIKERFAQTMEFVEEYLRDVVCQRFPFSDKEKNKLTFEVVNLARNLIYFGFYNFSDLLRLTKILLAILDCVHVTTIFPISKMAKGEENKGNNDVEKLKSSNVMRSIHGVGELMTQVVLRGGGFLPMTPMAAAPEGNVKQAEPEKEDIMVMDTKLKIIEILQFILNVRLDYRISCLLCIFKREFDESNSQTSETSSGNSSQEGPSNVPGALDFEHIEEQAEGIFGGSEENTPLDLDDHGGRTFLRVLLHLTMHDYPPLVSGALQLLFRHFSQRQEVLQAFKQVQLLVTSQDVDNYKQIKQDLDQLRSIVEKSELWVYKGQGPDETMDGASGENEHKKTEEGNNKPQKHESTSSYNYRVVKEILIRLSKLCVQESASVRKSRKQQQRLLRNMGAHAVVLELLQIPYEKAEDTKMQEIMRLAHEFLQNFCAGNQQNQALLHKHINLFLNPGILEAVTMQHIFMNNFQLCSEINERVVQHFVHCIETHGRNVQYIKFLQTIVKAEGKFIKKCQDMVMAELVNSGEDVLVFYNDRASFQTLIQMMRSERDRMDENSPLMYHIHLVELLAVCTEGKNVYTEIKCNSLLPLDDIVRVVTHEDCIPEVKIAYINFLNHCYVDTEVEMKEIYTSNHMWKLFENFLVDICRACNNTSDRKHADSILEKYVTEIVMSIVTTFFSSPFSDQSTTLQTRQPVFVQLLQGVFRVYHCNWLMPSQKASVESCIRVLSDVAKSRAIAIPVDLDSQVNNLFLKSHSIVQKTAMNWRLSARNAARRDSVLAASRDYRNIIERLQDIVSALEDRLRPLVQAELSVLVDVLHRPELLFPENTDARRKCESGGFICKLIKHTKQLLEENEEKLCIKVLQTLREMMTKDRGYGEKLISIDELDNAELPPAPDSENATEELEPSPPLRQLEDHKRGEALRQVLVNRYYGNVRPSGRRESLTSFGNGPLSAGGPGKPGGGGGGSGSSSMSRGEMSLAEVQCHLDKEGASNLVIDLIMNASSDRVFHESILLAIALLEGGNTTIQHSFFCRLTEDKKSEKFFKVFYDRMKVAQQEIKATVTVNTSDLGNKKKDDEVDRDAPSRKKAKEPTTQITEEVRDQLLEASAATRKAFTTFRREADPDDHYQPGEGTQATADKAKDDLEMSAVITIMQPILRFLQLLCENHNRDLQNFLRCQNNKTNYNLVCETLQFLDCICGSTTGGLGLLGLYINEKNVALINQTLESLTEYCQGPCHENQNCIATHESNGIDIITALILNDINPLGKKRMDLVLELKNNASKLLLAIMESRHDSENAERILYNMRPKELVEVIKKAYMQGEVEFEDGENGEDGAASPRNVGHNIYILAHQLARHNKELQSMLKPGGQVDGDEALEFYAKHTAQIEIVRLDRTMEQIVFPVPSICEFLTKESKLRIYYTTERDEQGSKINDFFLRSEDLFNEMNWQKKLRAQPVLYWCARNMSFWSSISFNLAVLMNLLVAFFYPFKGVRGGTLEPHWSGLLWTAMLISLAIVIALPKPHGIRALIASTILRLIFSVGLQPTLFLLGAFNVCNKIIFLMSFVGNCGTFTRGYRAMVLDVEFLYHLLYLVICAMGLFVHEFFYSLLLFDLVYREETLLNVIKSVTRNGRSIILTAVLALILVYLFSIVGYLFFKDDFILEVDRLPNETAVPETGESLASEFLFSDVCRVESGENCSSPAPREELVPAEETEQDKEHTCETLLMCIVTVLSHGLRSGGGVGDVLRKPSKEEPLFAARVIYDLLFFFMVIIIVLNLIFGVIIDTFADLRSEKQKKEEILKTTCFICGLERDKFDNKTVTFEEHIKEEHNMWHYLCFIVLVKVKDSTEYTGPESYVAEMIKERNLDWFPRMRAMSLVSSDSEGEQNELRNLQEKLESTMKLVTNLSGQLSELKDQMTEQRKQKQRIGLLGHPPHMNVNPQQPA

The target of the assay is IP3R-1 (inositol 1,4,5-trisphosphate receptor, endogenous) (human (endogenous in HAECs)) (UniProt Q14643). The assay is described as follows: co-IP; HAECs infected with 100 MOI Ad-Bik or Ad-Bik^L61G, 24 h; lysates immunoprecipitated with anti-Bcl-2 (Fig. 1e, 1k) or anti-IP3R-1 (Fig. 1k) antibody cross-linked to Protein A/G Plus agarose, overnight at 4 °C; western blot. A general note: In western blotting, separated proteins are transferred to a membrane and probed.

Results are given in words; binding and its absence hold for the method and conditions named. In cells and extracts the contact can be indirect. Some binding calls cover weakened binding; strength is not graded here.

As to “Bcl-2 (endogenous) (from UniProt P10415 1-239)”, the binding entry is given as “binds”.
